Values from PubChem BioAssay AID1259254 (NCATS, 2017)
The deposit covers about 59,000 reagents; below is an unselected part. About 1,550 of them (2.6%) were called active. 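G2 share is only a proxy for re-replication; each gene was hit by three separate siRNAs, and active genes were retested.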 The raw values are shown without normalisation. Not stated in the record: the amount of reagent.

- Assay: 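Finding genes that stop cells copying their DNA twice in one cycle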 (primary screen)
- Cells: human HCT116 colorectal cancer cells
- Reagents: single siRNA against human genes
- Time to read-out: 3 days
- Measured: 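Nuclei stained with Hoechst and imaged; cell-cycle phase assigned by DNA content; G2 share scaled per plate, non-targeting siRNA 0%, GMNN siRNA 100%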
- Reading the numbers: G2 robust z-score and G2 cells, % of GMNN control: higher = more G2 cells, more excess DNA replication; raw share of cells in G2: higher = larger share of cells with G2 DNA content
- Active means: 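Active siRNAs have a G2 robust z of 5 or more median absolute deviations over the median, which in these data means about 38% or higher of GMNN control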

| gene symbol | PubChem SID | G2 robust z-score | G2 cells, % of GMNN control | raw share of cells in G2 (%) | outcome |
| --- | --- | --- | --- | --- | --- |
| RIDA (GeneID 10247) | SID160727643 | -0.755 | -2.34 | 4.27 | inactive |
| RIDA (GeneID 10247) | SID160727647 | 0.499 | 6.48 | 6.65 | inactive |
| RIDA (GeneID 10247) | SID160727649 | -0.294 | 0.901 | 3.73 | inactive |
| PRSS27 (GeneID 83886) | SID160724604 | -1.12 | -4.88 | 2.44 | inactive |
| PRSS27 (GeneID 83886) | SID160751490 | -0.388 | 0.241 | 5.7 | inactive |
| PRSS27 (GeneID 83886) | SID160751491 | -1.2 | -5.51 | 2.66 | inactive |
| MAP4K5 (GeneID 11183) | SID160730146 | -0.887 | -3.27 | 4.57 | inactive |
| MAP4K5 (GeneID 11183) | SID160730147 | 0.23 | 4.59 | 6.86 | inactive |
| MAP4K5 (GeneID 11183) | SID160730148 | -1.06 | -4.5 | 2.24 | inactive |
| IP6K2 (GeneID 51447) | SID160724418 | -0.265 | 1.11 | 4.41 | inactive |
| IP6K2 (GeneID 51447) | SID160731370 | 3.48 | 27.5 | 14.7 | inactive |
| IP6K2 (GeneID 51447) | SID160742224 | -1.13 | -5.01 | 3.95 | inactive |
| DIMT1 (GeneID 27292) | SID160738663 | 7.93 | 58.8 | 23.7 | active |
| DIMT1 (GeneID 27292) | SID160738664 | -0.195 | 1.6 | 4.51 | inactive |
| DIMT1 (GeneID 27292) | SID160738665 | 2.95 | 23.7 | 16.9 | inactive |
| HES7 (GeneID 84667) | SID160732030 | -0.086 | 2.36 | 5.05 | inactive |
| HES7 (GeneID 84667) | SID160752554 | 3.09 | 24.7 | 13.9 | inactive |
| HES7 (GeneID 84667) | SID160752555 | -0.777 | -2.5 | 4.39 | inactive |
| CEP44 (GeneID 80817) | SID160734995 | 1.26 | 11.8 | 5.61 | inactive |
| CEP44 (GeneID 80817) | SID160750581 | 2.33 | 19.4 | 12.5 | inactive |
| CEP44 (GeneID 80817) | SID160750582 | -0.0609 | 2.54 | 5.41 | inactive |
| ADHFE1 (GeneID 137872) | SID160757538 | 2.97 | 23.9 | 17.3 | inactive |
| ADHFE1 (GeneID 137872) | SID160757539 | -0.465 | -0.303 | 4.59 | inactive |
| ADHFE1 (GeneID 137872) | SID160757540 | 4.19 | 32.5 | 18.3 | inactive |

Records listed so far with an active call, once more:
| gene symbol | PubChem SID | G2 robust z-score | G2 cells, % of GMNN control | raw share of cells in G2 (%) | outcome |
| --- | --- | --- | --- | --- | --- |
| DIMT1 (GeneID 27292) | SID160738663 | 7.93 | 58.8 | 23.7 | active |

Next records:
| gene symbol | PubChem SID | G2 robust z-score | G2 cells, % of GMNN control | raw share of cells in G2 (%) | outcome |
| --- | --- | --- | --- | --- | --- |
| ZGRF1 (GeneID 55345) | SID160743598 | -0.255 | 1.18 | 4.98 | inactive |
| ZGRF1 (GeneID 55345) | SID160743600 | 0.298 | 5.07 | 6.24 | inactive |
| ZGRF1 (GeneID 55345) | SID160743601 | 1.28 | 12 | 6.95 | inactive |
| ZGRF1 (GeneID 55345) | SID160753974 | -1.32 | -6.34 | 2.24 | inactive |
| ZGRF1 (GeneID 55345) | SID160753975 | -1.06 | -4.46 | 3.6 | inactive |
| ZGRF1 (GeneID 55345) | SID160753976 | -0.17 | 1.77 | 5.15 | inactive |
| CKS1B (GeneID 1163) | SID160730554 | -0.0628 | 2.53 | 4.97 | inactive |
| CKS1B (GeneID 1163) | SID160743881 | 2.56 | 21 | 12.5 | inactive |
| CKS1B (GeneID 1163) | SID160743892 | 0.156 | 4.07 | 6.48 | inactive |
| TAF9B (GeneID 51616) | SID160731384 | -0.45 | -0.196 | 3.73 | inactive |
| TAF9B (GeneID 51616) | SID160741098 | 0.748 | 8.23 | 9.69 | inactive |
| TAF9B (GeneID 51616) | SID160741099 | -0.47 | -0.341 | 4.12 | inactive |
| HMG20B (GeneID 10362) | SID160728253 | 1.94 | 16.6 | 12.9 | inactive |
| HMG20B (GeneID 10362) | SID160728254 | 0.0496 | 3.32 | 4.91 | inactive |
| HMG20B (GeneID 10362) | SID160728255 | -0.41 | 0.0845 | 6.51 | inactive |
| AQP7 (GeneID 364) | SID160719319 | 1.07 | 10.5 | 8.29 | inactive |
| AQP7 (GeneID 364) | SID160719329 | 2.02 | 17.1 | 11.2 | inactive |
| AQP7 (GeneID 364) | SID160719339 | 1.79 | 15.5 | 9.77 | inactive |
| DYRK3 (GeneID 8444) | SID160720049 | -1.21 | -5.55 | 3.77 | inactive |
| DYRK3 (GeneID 8444) | SID160720050 | -1.36 | -6.61 | 3.18 | inactive |
| DYRK3 (GeneID 8444) | SID160720051 | -0.596 | -1.22 | 3.59 | inactive |
| NIPA1 (GeneID 123606) | SID160756084 | -0.0997 | 2.27 | 5 | inactive |
| NIPA1 (GeneID 123606) | SID160756085 | -0.365 | 0.4 | 3.45 | inactive |
| NIPA1 (GeneID 123606) | SID160756086 | -1.01 | -4.16 | 0.603 | inactive |
| RBM20 (GeneID 282996) | SID160762753 | -0.0507 | 2.61 | 4.59 | inactive |
| RBM20 (GeneID 282996) | SID160762754 | 0.382 | 5.65 | 5.23 | inactive |
| RBM20 (GeneID 282996) | SID160762755 | -0.667 | -1.73 | 2.74 | inactive |
| SARS2 (GeneID 54938) | SID160742545 | -0.138 | 2 | 5.17 | inactive |
| SARS2 (GeneID 54938) | SID160742546 | -0.0837 | 2.38 | 7.47 | inactive |
| SARS2 (GeneID 54938) | SID160742547 | -0.269 | 1.07 | 4.82 | inactive |
| HRG (GeneID 3273) | SID160775315 | -0.72 | -2.1 | 4.32 | inactive |
| HRG (GeneID 3273) | SID160775316 | -0.482 | -0.422 | 3.93 | inactive |
| HRG (GeneID 3273) | SID160775318 | 2.04 | 17.3 | 10.3 | inactive |
| LOC401589 (GeneID 401589) | SID160767347 | -0.684 | -1.85 | 3.14 | inactive |
| LOC401589 (GeneID 401589) | SID160767348 | 0.197 | 4.35 | 5.24 | inactive |
| LOC401589 (GeneID 401589) | SID160767349 | -0.416 | 0.0404 | 4.81 | inactive |
| SMYD5 (GeneID 10322) | SID160728169 | -0.53 | -0.76 | 3.27 | inactive |
| SMYD5 (GeneID 10322) | SID160728170 | 1.06 | 10.4 | 10.6 | inactive |
| SMYD5 (GeneID 10322) | SID160728171 | -0.165 | 1.8 | 4.09 | inactive |
| RASSF1 (GeneID 11186) | SID160730155 | -0.401 | 0.149 | 3.92 | inactive |
| RASSF1 (GeneID 11186) | SID160730156 | 13.3 | 96.6 | 45.1 | active |
| RASSF1 (GeneID 11186) | SID160730518 | 1.81 | 15.7 | 9.42 | inactive |
| NOC4L (GeneID 79050) | SID160748541 | 4.5 | 34.7 | 20 | inactive |
| NOC4L (GeneID 79050) | SID160748542 | -0.817 | -2.78 | 3.22 | inactive |
| NOC4L (GeneID 79050) | SID160748543 | 2.34 | 19.4 | 11.2 | inactive |
